Test results as given in patent US20110046187A1, “ASSESSING CONGESTIVE HEART RISK IN PATIENTS TREATED OR POTENTIALLY TO BE TREATED WITH A PEROXISOME-PROLIFERATOR-ACTIVATOR-RECEPTOR-GAMMA AGONIST OR A THIAZOLIDINEDIONE” (BG MEDICINE, INC., priority 2007, published 2011).
Where a name gives a salt, the structure may show the parent alone. At least one structure is not confirmed: it was looked up by name or label, or the drawing left a doubt.

How the values were obtained:
Type in all cases: in vivo
BNP mRNA [1] = experiment: Transcriptional profiling (Affymetrix GeneChip) of BNP mRNA levels in mouse T2DM animal models (db/db and HFD); conditions: for Direction & Significance, BNP mRNA: drug/Disease (vehicle), Day 14
BNP mRNA [2] = experiment: BNP mRNA level in muscle, Clinical, Rosi/Placebo
Galectin-3 mRNA = experiment: Transcriptional profiling (Affymetrix GeneChip) of Galectin-3 mRNA levels in mouse T2DM animal models (db/db and HFD); conditions: for Direction & Significance, Galectin-3 mRNA: drug/Disease (vehicle), Day 14
[3] = Adipose, HFD-07 high fat diet mouse
[4] = Liver, HFD-07 high fat diet mouse
[5] = Muscle, HFD-07 high fat diet mouse

CN(CCOc1ccc(CC2SC(=O)NC2=O)cc1)c1ccccn1 (centres unmarked) [Rosi, rosiglitazone maleate]
Direction & Significance, BNP mRNA (BNP mRNA [1]; Adipose, DB-06 db/db mouse): Increase NS
Direction & Significance, BNP mRNA (BNP mRNA [1]; [3]): Increase
Direction & Significance, BNP mRNA (BNP mRNA [1]; Liver, DB-06 db/db mouse): Increase NS
Direction & Significance, BNP mRNA (BNP mRNA [1]; [4]): Decrease NS
Direction & Significance, BNP mRNA (BNP mRNA [1]; Muscle, DB-06 db/db mouse): Decrease NS
Direction & Significance, BNP mRNA (BNP mRNA [1]; [5]): Increase NS
Effect on BNP mRNA levels in the adipose, liver or muscle tissues (BNP mRNA [1]; disease model animals (text summary of Table 2)): does not have a significant effect
BNP mRNA level in adipose tissue (BNP mRNA [1]; one animal model (text summary of Table 2)): modest elevation
Direction & Significance, BNP mRNA (BNP mRNA [2]): Decrease NS
Direction & Significance, Galectin-3 mRNA (Galectin-3 mRNA; Adipose, DB-06 db/db mouse): Decrease
Direction & Significance, Galectin-3 mRNA (Galectin-3 mRNA; [3]): Decrease
Direction & Significance, Galectin-3 mRNA (Galectin-3 mRNA; Liver, DB-06 db/db mouse): Increase
Direction & Significance, Galectin-3 mRNA (Galectin-3 mRNA; [4]): Increase NS
Direction & Significance, Galectin-3 mRNA (Galectin-3 mRNA; Muscle, DB-06 db/db mouse): Decrease
Direction & Significance, Galectin-3 mRNA (Galectin-3 mRNA; [5]): Decrease NS
Gal-3 mRNA levels in both adipose and muscle tissue (Galectin-3 mRNA; T2DM animals (text summary of Table 1)): significant reduction
Gal-3 mRNA levels in liver tissue (Galectin-3 mRNA; disease model animals (text summary of Table 1)): modestly elevated
